Screening data, single-dose tests

The values are deposited in ChEMBL (CHEMBL3988442, “University of Dundee, Small-Polar-MMV Screening Library” (2021)).

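Growth of Mycobacterium tuberculosis over 4 days (cholesterol / DPPC medium with tyloxapol); the read-out is not stated. Compounds at 500 µM. The record gives no direction; compounds that gave an IC50 in retests scored well above the rest, so higher reads as more growth inhibition. About 18,000 compounds were tested under these conditions; 5% (about 900) showed 50% or more at least once.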

Each number is a percent effect as filed. The controls that fix the scale are not given in the record; negative values are as filed. This is an unselected part of the compounds tested.

Compound	percent effect
CC(C)c1noc(CN2CCC(CC(N)=O)CC2)n1	15.33
CCN(CC)C(=O)c1cccc2cn[nH]c12	0.1793
O=C(Cn1cc(I)cn1)Nc1ccccn1	-3.558
NCc1ccc(N2CCOCC2)c(F)c1	8.509
CC1(C)CC(CN)CCO1 (stereo unspecified)	-2.952
N#CC1CCN(C(=O)c2ccc(SCCO)cc2)CC1	10.86
O=C(NCCCN1CCOCC1)NCc1ccsc1	1.487
CN(C)C(=O)N1CCN(CC(O)c2ccccc2)CC1 (stereo unspecified)	5.394
Cc1ccn(CC(=O)N2CCC3(CCC3O)CC2)n1 (stereo unspecified)	-0.6861
Nc1cc(-c2ccc3c(c2)OCCO3)n[nH]1	-13.55
CC(=O)N1Cc2ccccc2C[C@H]1C(=O)N1CCCC1	8.663
O=C(NCCc1nnc[nH]1)c1ccc(F)cc1Cl	18
CN(C)CCO[C@@H]1COCC[C@H]1NC(=O)C1CC=CC1	1.153
C[C@@H](C(=O)NCc1cccc(Cl)c1)n1cnnn1	13.19
O=S(=O)(NC1CNC1)c1ccco1	16.62
O=S(=O)(c1cc2ccccc2o1)N1CCOCC1	-2.184
NC(=O)c1cc(N)nc2ccccc12	-28.02
COc1cc(NC(=O)CCN2CCCC2)cc(OC)c1	16.61
CN(C)c1cc(CNc2ncnc3nc[nH]c23)ccn1	0.8393
COc1ccc(C(=O)Nc2ccn(C)n2)cn1	0.927
CC(C)C[C@H](N)C(=O)N1CCC(Oc2ccncc2)C1 (stereo partly specified)	-15.3
CCCn1cnnc1C(C)NC(=O)c1cnc(O)cn1 (stereo unspecified)	-1.984
CC(C)C1CCCN1CCN (stereo unspecified)	2.767
Cc1cc2n(n1)C(O)CNC2=O (stereo unspecified)	4.716
Cc1cccc(S(=O)(=O)NCCN)c1Br	8.15
CCCC(O)CNS(=O)(=O)c1ccc(C(=O)NC)cc1 (stereo unspecified)	-0.465
O=C(CCNC(=O)c1cc[nH]n1)NC1CCCCC1	-2.952
N[C@@H]1CC[C@@H]1NC(=O)COCc1ccccc1	11.82
COC(=O)Cc1sc(N)nc1C	16.88
NC1(CF)CCOCC1	-2.173
CC(OCCCN)c1ccccc1 (stereo unspecified)	17.13
NCc1ccc(-n2cc(Cl)cn2)cc1	13.71
CCN(Cc1cccnc1)C(=O)c1cnc(O)cn1	-1.557
c1cn(C2CNC2)nn1	3.733
Cc1cc(O)nc(N2CCCCC2)n1	13.7
C[C@@H](NCc1csnn1)c1cccc(O)c1	-9.514
Cc1nc(C)c(CNc2ccc(C#N)nc2)s1	4.009
CCO[C@H]1CN(c2ncc(F)cn2)C[C@@H]1O	-15.23
COc1ccccc1CCC(=O)NCCC1CCOC1 (stereo unspecified)	19.77
CCOC(=O)CN(C(C)=O)c1ccc(C)cc1	22.74
Cc1cc(C(=O)Nc2ccc(OCC(N)=O)cc2)on1	-22.81
CC(C)[C@H](N)C(=O)N1CCc2cccc(F)c2C1	-12.66
CC(C)(C#N)C(=O)Nc1nc2c(s1)CCC2	25.21
CCC(CO)NS(=O)(=O)c1ccc(C)cc1 (stereo unspecified)	3.732
Nc1ccsc1C(=O)N1CC[C@@H](N)[C@H](O)C1	-2.857
O=C(C1CCC1)N1CCC(CCN2CCOCC2)CC1	-5.538
CN(C)CCC1CCCCN1S(=O)(=O)c1cccnc1 (stereo unspecified)	3.448
CC1CCCCN1CCCNc1ccc2nnnn2n1 (stereo unspecified)	-7.587
N#CC1CC(=O)N(Cc2ccccc2)C1 (stereo unspecified)	10.76
CNC(=O)C1CCCN(c2cccc(F)c2C(C)=O)C1 (stereo unspecified)	12.9
CCCS(=O)(=O)N1CCC(C(=O)NCCOC)CC1	-15.83
COc1ccc(C(=O)CCN(C)C)cc1	112.6
CCN(CCc1nccs1)C(=O)c1ccncc1F	-11.04
COCCCNC(=O)CN(C)c1ccccc1F	29.52
CCn1nnc(NC(=O)Cc2ccc(Cl)cc2)n1	37.12
CN(C)C(=O)CCc1cccnc1	1.118
CNCc1n[nH]c(=O)n1-c1ccc(C)c(Cl)c1	3.733
CCn1cncc1CN1C[C@H](O)[C@@H](N2CCCC2)C1	-17.44
N[C@@H]1CC[C@H](C(=O)NCc2csc(N3CCCC3)n2)C1	14.38
NS(=O)(=O)c1cccc(S(=O)(=O)c2ccc(Cl)cc2)c1	71.81
N#Cc1cccc(CN2CCCC(O)C2)c1 (stereo unspecified)	8.937
COc1ccc(CNC(=O)NCC2CC2)cn1	45.22
N[C@@H]1C[C@H]1c1cc(F)ccc1F	16.46
Cc1cc(N2CCNCC2)n[nH]1	-16.43
CCN(CCn1cccn1)C(=O)c1cc(C(C)C)no1	53.35

For reference, 4 entries once more:

With CNCc1n[nH]c(=O)n1-c1ccc(C)c(Cl)c1 the screen gave 3.733%.
With Nc1cc(-c2ccc3c(c2)OCCO3)n[nH]1 the screen gave -13.55%.
With COc1ccc(C(=O)CCN(C)C)cc1 the screen gave 112.6%.
With CN(C)C(=O)N1CCN(CC(O)c2ccccc2)CC1 (stereo unspecified) the screen gave 5.394%.